Laboratory results reported in PMC8394796.
These are yes or no findings as the source states them, for the method shown. Binding seen in cells or lysates may run through a third protein. Some results given as binding are weak or reduced against the parent protein; the word gives no strength.

Amino acid sequences for entries named in this document (tags omitted). Residues count along the entry.
UniProt P40763: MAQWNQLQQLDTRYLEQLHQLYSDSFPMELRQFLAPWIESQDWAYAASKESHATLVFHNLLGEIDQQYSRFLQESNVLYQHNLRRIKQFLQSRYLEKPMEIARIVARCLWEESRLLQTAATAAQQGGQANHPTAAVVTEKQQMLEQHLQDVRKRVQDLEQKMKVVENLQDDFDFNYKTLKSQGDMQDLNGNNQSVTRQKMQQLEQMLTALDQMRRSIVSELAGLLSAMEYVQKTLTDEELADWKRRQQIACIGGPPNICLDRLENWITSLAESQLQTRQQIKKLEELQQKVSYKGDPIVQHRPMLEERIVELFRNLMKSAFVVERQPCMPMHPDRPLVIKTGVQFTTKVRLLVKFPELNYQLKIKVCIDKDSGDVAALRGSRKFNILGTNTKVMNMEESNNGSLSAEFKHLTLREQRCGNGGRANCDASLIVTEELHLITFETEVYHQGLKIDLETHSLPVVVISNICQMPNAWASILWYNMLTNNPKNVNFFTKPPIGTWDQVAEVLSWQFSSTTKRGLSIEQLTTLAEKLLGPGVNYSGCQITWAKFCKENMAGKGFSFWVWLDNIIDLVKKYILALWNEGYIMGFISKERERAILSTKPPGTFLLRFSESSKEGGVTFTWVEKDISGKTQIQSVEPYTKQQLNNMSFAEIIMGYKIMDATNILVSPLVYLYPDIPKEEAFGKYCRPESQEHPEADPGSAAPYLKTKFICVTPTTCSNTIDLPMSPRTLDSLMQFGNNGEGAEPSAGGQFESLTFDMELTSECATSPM
UniProt Q9NZQ7, residues 19-290: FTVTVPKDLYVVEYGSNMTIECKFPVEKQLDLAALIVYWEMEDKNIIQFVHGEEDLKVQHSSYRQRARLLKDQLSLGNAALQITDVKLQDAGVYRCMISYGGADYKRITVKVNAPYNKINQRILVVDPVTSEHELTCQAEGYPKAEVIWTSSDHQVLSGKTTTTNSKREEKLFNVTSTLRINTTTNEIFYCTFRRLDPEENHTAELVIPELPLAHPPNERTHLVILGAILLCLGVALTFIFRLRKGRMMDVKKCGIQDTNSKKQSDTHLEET

Molecular target: signal transducer and activator of transcription 3 (STAT3) (human (endogenous in DU145)) (UniProt P40763)
Assay: co-IP; DU145 cell lysates (cells untreated or treated with compound K for 24 h) immunoprecipitated with anti-STAT3 antibody or normal IgG, Protein A/G sepharose beads; immunoblot for PD-L1 and STAT3

Q: How did the binding turn out when “programmed death-ligand 1 (PD-L1) (from UniProt Q9NZQ7 19-290)” was run?
A: Its binding is “binds”.
